Assay [1] addresses serotonin receptor 7 (5-HT7R), eCFP- or eYFP-tagged (UniProt P32304). The assay is described as follows: FRET or BRET; lux-FRET, live-cell confocal imaging (Zeiss LSM 780) of N1E-115 cells co-expressing eCFP (donor)- and eYFP (acceptor)-tagged receptors, 24 h post-transfection, tyrode buffer pH 7.4; apparent FRET efficiency EfD compared with CD86-eCFP/CD86-eYFP. (In general: Bioluminescence resonance energy transfer reports proximity on the nanometre scale.)

The chains behind the UniProt entries cited, without tags or fusion partners.
UniProt P32304: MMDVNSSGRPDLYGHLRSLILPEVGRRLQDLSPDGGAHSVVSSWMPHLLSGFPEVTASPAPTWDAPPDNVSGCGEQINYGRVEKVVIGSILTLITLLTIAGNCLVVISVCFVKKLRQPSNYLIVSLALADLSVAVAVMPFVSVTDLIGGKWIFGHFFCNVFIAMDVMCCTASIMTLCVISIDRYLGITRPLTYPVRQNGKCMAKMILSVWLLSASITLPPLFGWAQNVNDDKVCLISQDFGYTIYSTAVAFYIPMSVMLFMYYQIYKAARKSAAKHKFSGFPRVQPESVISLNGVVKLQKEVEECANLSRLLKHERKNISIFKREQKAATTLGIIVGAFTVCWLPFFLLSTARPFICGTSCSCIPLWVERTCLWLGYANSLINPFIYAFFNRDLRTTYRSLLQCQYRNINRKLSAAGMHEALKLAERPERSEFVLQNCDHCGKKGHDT

The target is the same in assay [2]. Description: FRET or BRET; lux-FRET on suspensions of N1E-115 cells transfected with varying donor and acceptor amounts, fluorescence spectrometer (Fluorolog-3.22), room temperature, tyrode buffer pH 7.4; apparent FRET efficiency against donor mole fraction fitted to a dimerization model; relative dissociation constants, monomer to dimer.

Results are given in words; binding and its absence hold for the method and conditions named. Binding seen in cells or lysates may run through a third protein. Some entries that bind do so weakly or less than the wild type.

For the substance “serotonin receptor 7 (5-HT7R), eCFP- or eYFP-tagged (from UniProt P32304 1-448)”, the binding result in assay [1] and in assay [2] was “binds” each time.

Source of the values: article PMC11585102.
